Results published in PMC3788105.
These are yes or no findings as the source states them, for the method shown. In cells and extracts the contact can be indirect. Some binding calls cover weakened binding; strength is not graded here.

Target: HA-tagged WT Htz1 (S. cerevisiae H2A.Z) (S. cerevisiae), Q12692
Assay: co-IP; HA-Htz1 immunoprecipitated from soluble yeast cell lysate with monoclonal anti-HA agarose beads overnight at 4°C, washed three times in co-IP buffer; partners detected by immunoblot (anti-Flag or anti-Chz1)
Conditions: remark: other sources report otherwise

binding: binds
B1: Chz1, P40019 1-153 (protein)
chain: MSDEAKEKRELESQKESSHNKSEKSVEPKPKRRRRRNYDDYDAEVAKEETKAKNGLTKSENNGTVEDSESDMDDAKLDALMGNEGEEEEDDLAEIDTSNIITSGRRTRGKVIDYKKTAEELDKKEPSTGSKDDVGYGEKEEDDEDEEDDDFKE
